In publication PMC11002876, “KcsA-Kv1.x chimeras with complete ligand-binding sites provide improved predictivity for screening selective Kv1.x blockers” (The Journal of Biological Chemistry, 2024) one finds binding data, which are given here for 2 molecules.

Results are given in words; binding and its absence hold for the method and conditions named. Sequences can lack the tags named with a protein.

This assay addresses T1, WT KcsA (K channel of streptomyces A), full-length, with N-terminal His-tag (Streptomyces lividans) (UniProt P0A334).
T1 sequence: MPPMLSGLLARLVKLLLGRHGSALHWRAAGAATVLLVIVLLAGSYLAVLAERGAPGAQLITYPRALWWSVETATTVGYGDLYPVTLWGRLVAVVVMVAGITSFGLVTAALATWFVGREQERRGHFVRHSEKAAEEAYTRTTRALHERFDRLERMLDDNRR
Briefly: ELISA; both purified. For orientation: ELISA stands for enzyme-linked immunosorbent assay.

For TVIDVKCTSPKQCLPPCKAQFGIRAGAKCMNGKCKCYPH (peptide, UniProt P59847 1-39) [Hongotoxin-1 displayed on M13 phage as a fusion to the P3 coat protein], the binding entry was “no binding”.

Take GVEINVKCSGSPQCLKPCKDAGMRFGKCMNRKCHCTPK (peptide, UniProt P24662 1-38) [Kaliotoxin-1 displayed on M13 phage as a fusion to the P3 coat protein]: the binding entry is listed as “no binding”.
